Patent US6995018
Results are given in words; binding and its absence hold for the method and conditions named. Some results given as binding are weak or reduced against the parent protein; the word gives no strength.

Protein sequences, listed by entry. Tags and fused reporters are not part of them. Lines headed by an entry give the natural chain unless they say otherwise; changes in a name come on top. Residues count along the entry.
UniProt P08603, residues 19-1231: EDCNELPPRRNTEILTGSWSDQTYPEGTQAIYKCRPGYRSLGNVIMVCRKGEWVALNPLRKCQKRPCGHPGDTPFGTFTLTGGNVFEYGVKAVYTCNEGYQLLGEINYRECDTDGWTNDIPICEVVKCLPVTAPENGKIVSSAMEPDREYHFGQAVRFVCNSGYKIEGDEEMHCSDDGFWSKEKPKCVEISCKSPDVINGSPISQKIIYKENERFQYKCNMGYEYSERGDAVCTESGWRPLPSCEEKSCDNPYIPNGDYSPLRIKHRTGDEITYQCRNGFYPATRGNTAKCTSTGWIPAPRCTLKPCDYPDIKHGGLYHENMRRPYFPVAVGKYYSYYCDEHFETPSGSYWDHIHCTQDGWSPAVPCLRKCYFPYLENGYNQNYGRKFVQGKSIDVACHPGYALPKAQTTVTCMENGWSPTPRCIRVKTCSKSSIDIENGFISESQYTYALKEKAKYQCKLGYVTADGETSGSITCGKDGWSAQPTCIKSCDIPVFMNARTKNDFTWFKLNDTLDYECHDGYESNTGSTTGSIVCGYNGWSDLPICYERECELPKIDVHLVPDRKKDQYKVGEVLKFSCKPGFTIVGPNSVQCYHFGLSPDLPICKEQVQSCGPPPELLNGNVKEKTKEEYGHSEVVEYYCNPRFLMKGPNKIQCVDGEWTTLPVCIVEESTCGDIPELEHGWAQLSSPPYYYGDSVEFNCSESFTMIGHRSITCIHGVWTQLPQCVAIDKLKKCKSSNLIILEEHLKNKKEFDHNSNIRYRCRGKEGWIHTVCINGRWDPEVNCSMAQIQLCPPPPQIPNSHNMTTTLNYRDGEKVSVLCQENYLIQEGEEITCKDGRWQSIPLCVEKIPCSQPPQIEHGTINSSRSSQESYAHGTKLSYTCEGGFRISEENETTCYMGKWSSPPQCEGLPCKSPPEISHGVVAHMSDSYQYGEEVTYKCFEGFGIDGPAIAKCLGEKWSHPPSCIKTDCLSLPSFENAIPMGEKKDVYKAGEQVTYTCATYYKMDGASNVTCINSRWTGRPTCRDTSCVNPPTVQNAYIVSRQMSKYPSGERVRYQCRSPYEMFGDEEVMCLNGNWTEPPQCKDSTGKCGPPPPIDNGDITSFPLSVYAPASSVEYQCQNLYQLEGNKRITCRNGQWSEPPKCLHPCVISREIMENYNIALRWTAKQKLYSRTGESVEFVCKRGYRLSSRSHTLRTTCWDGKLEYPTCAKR
UniProt P43406: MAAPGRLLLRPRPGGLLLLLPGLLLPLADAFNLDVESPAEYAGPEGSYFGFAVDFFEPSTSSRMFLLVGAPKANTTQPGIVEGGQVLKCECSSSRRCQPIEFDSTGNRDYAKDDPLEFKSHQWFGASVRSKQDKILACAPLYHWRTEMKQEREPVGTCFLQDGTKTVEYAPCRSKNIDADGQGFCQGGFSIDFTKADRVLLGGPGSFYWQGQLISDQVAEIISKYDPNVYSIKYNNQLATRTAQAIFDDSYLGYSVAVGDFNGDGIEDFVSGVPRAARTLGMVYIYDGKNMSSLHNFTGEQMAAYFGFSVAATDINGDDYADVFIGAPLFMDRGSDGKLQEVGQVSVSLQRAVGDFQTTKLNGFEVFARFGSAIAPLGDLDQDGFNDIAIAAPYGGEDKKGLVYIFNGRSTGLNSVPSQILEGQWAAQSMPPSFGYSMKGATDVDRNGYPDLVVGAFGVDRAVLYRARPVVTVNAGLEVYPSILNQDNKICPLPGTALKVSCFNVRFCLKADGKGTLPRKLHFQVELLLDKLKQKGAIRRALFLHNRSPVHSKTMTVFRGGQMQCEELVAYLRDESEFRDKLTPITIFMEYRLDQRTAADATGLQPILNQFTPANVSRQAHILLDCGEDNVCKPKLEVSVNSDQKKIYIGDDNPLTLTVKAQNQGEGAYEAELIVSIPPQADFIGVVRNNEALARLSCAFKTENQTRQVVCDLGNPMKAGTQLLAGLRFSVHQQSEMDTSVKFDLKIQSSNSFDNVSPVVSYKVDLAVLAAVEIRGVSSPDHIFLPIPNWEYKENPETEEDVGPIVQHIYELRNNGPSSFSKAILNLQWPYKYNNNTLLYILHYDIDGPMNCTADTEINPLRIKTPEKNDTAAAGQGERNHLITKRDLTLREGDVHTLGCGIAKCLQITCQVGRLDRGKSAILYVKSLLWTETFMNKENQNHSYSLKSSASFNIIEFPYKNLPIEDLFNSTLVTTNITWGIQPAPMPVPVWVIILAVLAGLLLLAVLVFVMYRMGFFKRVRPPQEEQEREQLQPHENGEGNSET
UniProt O54890: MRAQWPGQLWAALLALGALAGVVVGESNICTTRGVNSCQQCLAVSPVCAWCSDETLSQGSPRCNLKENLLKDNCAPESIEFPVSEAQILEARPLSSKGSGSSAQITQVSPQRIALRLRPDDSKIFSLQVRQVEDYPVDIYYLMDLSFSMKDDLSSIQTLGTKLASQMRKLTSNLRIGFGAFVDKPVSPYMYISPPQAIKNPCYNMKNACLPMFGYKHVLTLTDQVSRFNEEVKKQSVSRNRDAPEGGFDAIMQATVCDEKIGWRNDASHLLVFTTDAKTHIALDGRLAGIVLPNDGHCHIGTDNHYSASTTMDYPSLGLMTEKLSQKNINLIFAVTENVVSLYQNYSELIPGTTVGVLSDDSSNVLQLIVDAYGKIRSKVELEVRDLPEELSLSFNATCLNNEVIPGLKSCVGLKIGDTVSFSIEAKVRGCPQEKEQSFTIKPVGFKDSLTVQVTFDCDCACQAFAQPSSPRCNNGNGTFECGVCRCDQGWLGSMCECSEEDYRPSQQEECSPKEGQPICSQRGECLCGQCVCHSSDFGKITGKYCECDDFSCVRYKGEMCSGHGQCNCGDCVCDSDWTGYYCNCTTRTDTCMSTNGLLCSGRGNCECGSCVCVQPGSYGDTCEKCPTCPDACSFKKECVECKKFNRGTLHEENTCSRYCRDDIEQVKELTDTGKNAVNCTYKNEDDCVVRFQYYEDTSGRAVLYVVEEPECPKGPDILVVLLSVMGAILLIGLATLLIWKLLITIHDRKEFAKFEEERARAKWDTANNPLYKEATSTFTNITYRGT

Key:
[1] = molecular target: human complement Factor H (human) (UniProt P08603); assay: steady state tryptophan fluorescence quenching, titration of Factor H
[2] = molecular target: T1, CD44 on murine erythroleukemia (MEL) cells (murine (MEL cells)) (UniProt P15379); assay: inferred from MEL cell complement lysis assay with antiserum to CD44
T1 sequence (looked up): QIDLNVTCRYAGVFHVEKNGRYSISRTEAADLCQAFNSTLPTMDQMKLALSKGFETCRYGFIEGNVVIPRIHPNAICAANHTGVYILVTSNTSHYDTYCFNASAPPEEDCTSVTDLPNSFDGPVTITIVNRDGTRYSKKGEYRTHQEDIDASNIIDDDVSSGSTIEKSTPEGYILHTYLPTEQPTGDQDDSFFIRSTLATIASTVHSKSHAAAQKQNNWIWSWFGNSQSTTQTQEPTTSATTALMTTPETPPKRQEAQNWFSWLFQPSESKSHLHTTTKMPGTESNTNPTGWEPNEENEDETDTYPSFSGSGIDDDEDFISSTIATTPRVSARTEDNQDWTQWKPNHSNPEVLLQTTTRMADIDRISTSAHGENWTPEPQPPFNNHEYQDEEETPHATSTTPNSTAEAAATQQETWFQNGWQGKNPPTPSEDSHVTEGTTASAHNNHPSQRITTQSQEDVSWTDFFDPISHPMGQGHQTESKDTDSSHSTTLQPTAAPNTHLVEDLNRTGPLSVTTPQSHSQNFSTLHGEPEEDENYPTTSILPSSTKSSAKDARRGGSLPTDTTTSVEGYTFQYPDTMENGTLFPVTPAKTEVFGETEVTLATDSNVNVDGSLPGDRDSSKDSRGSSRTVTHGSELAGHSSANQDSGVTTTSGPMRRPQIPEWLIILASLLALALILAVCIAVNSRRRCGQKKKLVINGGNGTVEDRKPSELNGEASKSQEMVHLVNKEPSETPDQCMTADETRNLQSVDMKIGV

[3] = molecular target: human complement Factor H (human) (UniProt P08603); assay: steady state fluorescence, titration of purified human Factor H with rDMP1
[4] = molecular target: αVβ3 integrin on murine erythroleukemia (MEL) cells (murine (MEL cells)) (UniProt P43406+O54890); assay: inferred from MEL cell complement lysis assay with GRGDS peptide and αVβ3 antiserum
[5] = molecular target: human complement Factor H (human) (UniProt P08603); assay: summary of the experiments of section II

Measured: binding

B1: recombinant dentin matrix protein 1 (rDMP1) (ligand)
chain: LPVTRYQNNESEDSEEWKGHLAQAPTPPLESSESSEGSKVSSEEQANEDPSDSTQSEEGLGSDDHQYIYRLAGGFSRSTGKGGDDKDDDEDDSGDDTFGDDDSGPGPKDRQEGGNSRLGSDEDSDDTIQASEESAPQGQDSAQDTTSESRELDNEDRVDSKPEGGDSTQESESEEHWVGGGSDGESSHGDGSELDDEGMQSDDPESIRSERGNSRMNSAGMKSKESGENSEQANTQDSGGSQLLEHPSRKIFRKSRISEEDDRSELDDNNTMEEVKSDSTENSNSRDTGLSQPRRDSKGDSQEDSKENLSQEESQNVDGPSSESSQEANLSSQENSSESQEEVVSESRGDNPDPTTSYVEDQEDSDSSEEDSSHTLSHSKSESREEQADSESSESLNFSEESPESPEDENSSSQEGLQSHSSSAESQSEESHSEEDDSDSQDSSRSKEDSNSTESKSSSEEDGQLKNIEIESRKLTVDAYHNKPIGDQDDNDCQDGY
binds: all assays above
